The target of the test is MRP3 (ABCC3) (Homo sapiens, UniProt O15438). In words: inhibition of ATP-dependent [3H]-E217G uptake, membrane vesicles. To be noted: 10 μM E217G, 5 min, 37 °C, 100 μM compound, value is remaining uptake.

By UniProt entry, the sequences of proteins in these tests, tags left out. Where a name states a change or a piece, a line headed by the entry shows the natural chain unless it says otherwise.
UniProt O15438: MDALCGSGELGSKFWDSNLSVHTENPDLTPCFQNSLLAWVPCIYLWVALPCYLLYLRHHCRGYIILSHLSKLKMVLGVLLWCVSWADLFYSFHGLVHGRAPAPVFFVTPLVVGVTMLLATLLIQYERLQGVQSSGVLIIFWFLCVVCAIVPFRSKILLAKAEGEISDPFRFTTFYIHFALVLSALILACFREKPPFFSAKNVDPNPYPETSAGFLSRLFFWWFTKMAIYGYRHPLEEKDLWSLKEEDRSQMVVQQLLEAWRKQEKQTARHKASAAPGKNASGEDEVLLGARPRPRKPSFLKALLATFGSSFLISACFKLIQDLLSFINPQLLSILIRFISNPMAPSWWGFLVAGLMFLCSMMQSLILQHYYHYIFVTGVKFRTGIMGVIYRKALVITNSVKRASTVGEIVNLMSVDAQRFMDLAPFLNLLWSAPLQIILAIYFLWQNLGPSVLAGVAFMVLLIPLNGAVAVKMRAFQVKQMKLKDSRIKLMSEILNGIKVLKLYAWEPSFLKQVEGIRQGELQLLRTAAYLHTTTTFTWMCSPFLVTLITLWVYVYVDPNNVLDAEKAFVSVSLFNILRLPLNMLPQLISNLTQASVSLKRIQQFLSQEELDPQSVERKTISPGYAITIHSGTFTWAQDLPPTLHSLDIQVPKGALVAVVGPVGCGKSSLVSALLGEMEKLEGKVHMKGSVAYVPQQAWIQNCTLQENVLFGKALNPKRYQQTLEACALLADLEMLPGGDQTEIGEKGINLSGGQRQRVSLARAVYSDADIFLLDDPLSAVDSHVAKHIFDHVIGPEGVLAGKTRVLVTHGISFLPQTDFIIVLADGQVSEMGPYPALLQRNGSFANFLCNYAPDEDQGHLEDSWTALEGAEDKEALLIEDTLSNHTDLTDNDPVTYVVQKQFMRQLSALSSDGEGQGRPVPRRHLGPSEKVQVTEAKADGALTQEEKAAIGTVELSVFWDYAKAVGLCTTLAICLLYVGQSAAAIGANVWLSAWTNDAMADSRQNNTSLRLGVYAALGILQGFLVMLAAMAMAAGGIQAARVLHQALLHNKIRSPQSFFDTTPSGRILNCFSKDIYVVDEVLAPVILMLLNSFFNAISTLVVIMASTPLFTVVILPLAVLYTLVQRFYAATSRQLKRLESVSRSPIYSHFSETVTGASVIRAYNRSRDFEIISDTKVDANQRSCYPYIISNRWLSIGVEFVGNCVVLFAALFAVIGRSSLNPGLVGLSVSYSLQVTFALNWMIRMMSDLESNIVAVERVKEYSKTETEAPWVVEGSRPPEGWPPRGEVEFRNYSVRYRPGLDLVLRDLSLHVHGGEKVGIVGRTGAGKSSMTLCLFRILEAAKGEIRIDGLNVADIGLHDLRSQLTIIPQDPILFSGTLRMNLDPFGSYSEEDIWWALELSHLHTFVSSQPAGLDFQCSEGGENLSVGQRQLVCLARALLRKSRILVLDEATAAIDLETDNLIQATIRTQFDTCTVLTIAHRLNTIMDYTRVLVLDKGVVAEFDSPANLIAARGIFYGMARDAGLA

The structures appear in SMILES notation.

For `CCCCc1oc2ccccc2c1C(=O)c1cc(I)c(OCCN(CC)CC)c(I)c1` [amiodarone], the “E217G uptake, % of control at 100 μM” value was determined as 58.4%.

For the origin of these results see article PMC5450158 (European journal of pharmaceutical sciences : official …, 2017).
